Results taken from patent US20060216292A1.
Results are given in words; binding and its absence hold for the method and conditions named. Binding seen in cells or lysates may run through a third protein. Binding can be weak; no strength is given.

B1: Calsyntenin 1 (SEQ ID No:36) (protein)
chain: ARVNKHKPWLEPTYHGIVTENDNTVLLDPPLIALDKDAPLRFAESFEVTVTKEGEICGFKIHGQNVPFDAVVVDKSTGEGVIRSKEKLDCELQKDYSFTIQAYDCGKGPDGTNVKKSHKATVHIQVNDVNEYAPVFKEKSYKATVIEGKQYDSILRVEAVDADCSPQFSQICSYEIITPDVPFTVDKDGYIKNTEKLNYGKEHQYKLTVTAYDCGKKRATEDVLVKISIKPTCTPGWQGWNNRIEYEPGTGALAVFPNIHLETCDEPVASVQATVELETSHIGKGCDRDTYSEKSLHRLCGAAAGTAELLPSPSGSLNWTMGLPTDNGHDSDQVFEFNGTQAVRIPDGVVSVSPKEPFTISVWMRHGPFGRKKETILCSSDKTDMNRHHYSLYVHGCRLIFLFRQDPSEEKKYRPAEFHWKLNQVCDEEWHHYVLNVEFPSVTLYVDGTSHEPFSVTEDYPLHPSKIETQLVVGACWQEFSGVENDNETEPVTVASAGGDLHMTQFFRGNLAGLTLRSGKLADKKVIDCLYTCKEGLDLQVLEDSGRGVQIQAHPSQLVLTLEGEDLGELDKAMQHISYLNSRQFPTPGIRRLKITSTIKCFNEATCISVPPVDGYVMVLQPEEPKISLSGVHHFARAASEFESSEGVFLFPELRIISTITREVEPEGDGAEDPTVQESLVSEEIVHDLDTCEVTVEGEELNHEQESLEVDMARLQQKGIEVSSSELGMTFTGVDTMASYEEVLHLLRYRNWHARSLLDRKFKLICSELNGRYISNEFKVEVNVIHTANPMEHANHMAAQPQFVHPEHRSFVDLSGHNLANPHPFAVVPSTATVVIVVCVSFLVFMIILGVFRIRAAHRRTMRDQDTGKENEMDWDDSALTITVNPMETYEDQHSSEEEEEEEEEEESEDGEEEDDITSAESESSEEEEGEQGDPQNATRQQQLEWDDSTLSY
B2: CGI-13 (protein)
chain: MSFLIDSSIMITSQILFFGFGWLFFMRQLFKDYEIRQYVVQVIFSVTFAFSCTMFELIIFEILGVLNSSSRYFHWKMNLCVILLILVFMVPFYIGYFIVSNIRLLHKQRLLFSCLLWLTFMYFFWKLGDPFPILSPKHGILSIEQLISRVGVIGVTLMALLSGFGAVNCPYTYMSYFLRNVTDTDILALERRLLQTMDMIISKKKRMAMARRTMFQKGEVHNKPSGFWGMIKSVTTSASGSENLTLIQQEVDALEELSRQLFLETADLYATKERIEYSKTFKGKYFNFLGYFFSIYCVWKIFMATINIVFDRVGKTDPVTRGIEITVNYLGIQFDVKFWSQHISFILVGIIIVTSIRGLLITLTKFFYAISSSKSSNVIVLLLAQIMGMYFVSSVLLIRMSMPLEYRTIITEVLGELQFNFYHRWFDVIFLVSALSSILFLYLAHKQAPEKQMAP
B3: Integral membrane transporter protein (protein)
chain: MVNYAWAGRSQRKLWWRSVAVLTCKSVVRPGYRGGLQARRSTLLKTCARARATAPGAMKMVAPWTRFYSNSCCLCCHVRTGTILLGVWYLIINAVVLLILLSALADPDQYNFSSSELGGDFEFMDDANMCIAIAISLLMILICAMATYGAYKQRAAWIIPFFCYQIFDFALNMLVAITVLIYPNSIQEYIRQLPPNFPYRDDVMSVNPTCLVLIILLFISIILTFKGYLISCVWNCYRYINGRNSSDVLVYVTSNDTTVLLPPYDDATVNGAAKEPPPPYVSA

What follows are binders tested against TAP-tagged BACE1 (Homo sapiens (Human)) (assay: TAP purification of tagged bait, LC-MS/MS; novel interactor).

Question: For B1, which binding is on record?
Answer: Its binding is “binds”.

Question: For B2, which binding is on record?
Answer: Its binding is “binds”.

Question: B3 was tested. Which binding did it give?
Answer: The binding was “binds”.
